Drawing on EP4714976A1, this text covers binding for 13 molecules.

Amino acid sequences for entries named in this document (tags omitted). A change or cut given only in a name is not applied to a line headed by its entry. Chains listed by the source or under a name are the forms on record and can include a tag or linker.
human FGFR2b (Kaixia Biotechnology, catalog number FGR-HM1BB) (P21802, form named): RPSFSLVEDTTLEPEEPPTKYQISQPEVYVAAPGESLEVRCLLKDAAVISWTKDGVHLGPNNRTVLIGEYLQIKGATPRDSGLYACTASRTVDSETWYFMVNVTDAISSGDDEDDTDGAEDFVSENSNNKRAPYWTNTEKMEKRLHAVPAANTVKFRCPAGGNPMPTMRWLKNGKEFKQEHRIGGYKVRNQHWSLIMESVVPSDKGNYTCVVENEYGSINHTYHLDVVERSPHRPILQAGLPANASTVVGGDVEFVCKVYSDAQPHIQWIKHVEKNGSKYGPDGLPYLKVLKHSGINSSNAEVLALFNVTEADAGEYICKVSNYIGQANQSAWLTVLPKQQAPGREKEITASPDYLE

Residue numbers refer to the chain shown, from its start. Results are given in words; binding and its absence hold for the method and conditions named. Some results given as binding are weak or reduced against the parent protein; the word gives no strength. Where a sequence is shown, tags or fusion partners need not be part of it.

The test has as its target human FGFR2b (Kaixia Biotechnology, catalog number FGR-HM1BB) (human) (UniProt P21802). The test can be described thus: ELISA, antibody 1ug/mL.

B1: 3D6 scFv-Fc (Fc fusion)
chain: QVQLQQSGAELVKPGASVKMSCKASGYTFRYYNMHWVKRTPGQGLEWIGLIYPDNGDTSYNQKFKGKATLTADTSSSTAYMQLSSLTSEDSAVYYCARGGLDYWGQGTSLTVSSGGGGSGGGGSGGGGSDIQMTQSPASLSVSVGETVTITCRASENIYSNLAWYQQKQGKSPQLLVYNAKTLADGVPSRFSGSGSGTQYSLKINSLQPEDFGSYYCQHFWSTPFTFGSGTKLELKESKYGPPCPPCPAPEAAGGPSVFLFPPKPKDTLMISRTPEVTCVVVDVSQEDPEVQFNWYVDGVEVHNAKTKPREEQFNSTYRVVSVLTVLHQDWLNGKEYKCKVSNKGLPSSIEKTISKAKGQPREPQVYTLPPSQEEMTKNQVSLTCLVKGFYPSDIAVEWESNGQPENNYKTTPPVLDSDGSFFLYSKLTVDKSRWQEGNVFSCSVMHEALHNHYTQKSLSLSLG
As to B1, the binding result was “binds”.

B2: 3H6 scFv-Fc (Fc fusion)
chain: QVQLQQSGAELVKPGASVKMSCKASGYTFSFYNIHWVRQTPGQGLEWIGLIYPDNGDTSYNQKFKAKATLTADKSSSTAYMQLSSLTSEDSAVYYCARGGFDYWGQGTTLTVSSGGGGSGGGGSGGGGSDIQMTQSPASLSASVGETVTITCRASENIYSYLAWYQQKQGKSPQLLVYNAKTLAEGVPSRFSGSGSGTQFSLKINSLQPEDFGSYYCQHHYGTPYTFGGGTKLEMKESKYGPPCPPCPAPEAAGGPSVFLFPPKPKDTLMISRTPEVTCVVVDVSQEDPEVQFNWYVDGVEVHNAKTKPREEQFNSTYRVVSVLTVLHQDWLNGKEYKCKVSNKGLPSSIEKTISKAKGQPREPQVYTLPPSQEEMTKNQVSLTCLVKGFYPSDIAVEWESNGQPENNYKTTPPVLDSDGSFFLYSKLTVDKSRWQEGNVFSCSVMHEALHNHYTQKSLSLSLG
With B2, the binding entry was “binds”.

B3: 3E3 scFv-Fc (Fc fusion)
chain: QVQLQQPGAVLVKPGASVRMSCKASGYTFPYYNVHWVKRTPGQGLEWIGLIYPDNGDTSYNQKFTGKATLTADTSSSTAYMQLSSLTSEDSAVYYCARGGLDYWGQGTTLTVSAGGGGSGGGGSGGGGSDVQITQSPASLSASVGETVTITCGASENIYGALNWYQRKQGKSPQLLIYGATNLADGMSSRFSGSGSGRQYSLKISSLHPDDVATYYCQNVLSTPYTFGGGTKLEIKESKYGPPCPPCPAPEAAGGPSVFLFPPKPKDTLMISRTPEVTCVVVDVSQEDPEVQFNWYVDGVEVHNAKTKPREEQFNSTYRVVSVLTVLHQDWLNGKEYKCKVSNKGLPSSIEKTISKAKGQPREPQVYTLPPSQEEMTKNQVSLTCLVKGFYPSDIAVEWESNGQPENNYKTTPPVLDSDGSFFLYSKLTVDKSRWQEGNVFSCSVMHEALHNHYTQKSLSLSLG
Consider B3, for which the binding result was “binds”.

B4: 3A12 scFv-Fc (Fc fusion)
chain: EVQLQQSGAELVKPGASVKMSCKASGYTFSFYNVHWVRQTPGQGLEWIGLIYPDNGDTSYNQKFKAKATLTADKSSSAAYMQLSSLTSEDSAVYYCARGGFDYWGQGTSLTVSSGGGGSGGGGSGGGGSDIVMTQSHKFMSTSVGDRVNITCKASQDVSTAVAWYQQKPGQSPKLLIYSASYRYSGVPDRFTGSGSGTDFTFTISSVQAEDLAVYYCQQHYSTPYTFGGGTKLEMKESKYGPPCPPCPAPEAAGGPSVFLFPPKPKDTLMISRTPEVTCVVVDVSQEDPEVQFNWYVDGVEVHNAKTKPREEQFNSTYRVVSVLTVLHQDWLNGKEYKCKVSNKGLPSSIEKTISKAKGQPREPQVYTLPPSQEEMTKNQVSLTCLVKGFYPSDIAVEWESNGQPENNYKTTPPVLDSDGSFFLYSKLTVDKSRWQEGNVFSCSVMHEALHNHYTQKSLSLSLG
B4: the binding entry is “binds”.

B5: 3F10 scFv-Fc (Fc fusion)
chain: EVQLQQSGAELVKPGASVKMSCKASGYTFSFYNIHWVRQTPGQGLEWIGLIYPDNGDTSYNQKFKAKATLTADKSSSTAYMQLSSLTSEDSAVYYCARGGFDYWGQGTTLTVSSGGGGSGGGGSGGGGSDVLMTQSPASLSASVGETVTITCGASENIYGALNWYQRKQGKSPQLLIYGATNLADGMSSRFSGSGSGRQYSLKISSLHPDDVATYYCQNVLSTPYTFGGGTKLEIKESKYGPPCPPCPAPEAAGGPSVFLFPPKPKDTLMISRTPEVTCVVVDVSQEDPEVQFNWYVDGVEVHNAKTKPREEQFNSTYRVVSVLTVLHQDWLNGKEYKCKVSNKGLPSSIEKTISKAKGQPREPQVYTLPPSQEEMTKNQVSLTCLVKGFYPSDIAVEWESNGQPENNYKTTPPVLDSDGSFFLYSKLTVDKSRWQEGNVFSCSVMHEALHNHYTQKSLSLSLG
With B5, the binding entry is listed as “binds”.

B6: 3E7 scFv-Fc (Fc fusion)
chain: QVQLQQSGAELVKPGASVKMSCKASGYTFTIYNIHWVRQTPGQGLEWIGLIYPDNGDTSYNQKFKAKATLTADKSSSTAYMQLSSLTSEDSAVYYCARGGFDYWGQGTTLTVSSGGGGSGGGGSGGGGSNIVMTQSQKFMSTSVGDRVSVTCKASQNVGTNVAWYQQKPGQSPKALIYSASYRYSGVPDRFTGSGSGTDFTLTISGVQAEDLADYYCQQHYNTPYTFGGGTKLEIKESKYGPPCPPCPAPEAAGGPSVFLFPPKPKDTLMISRTPEVTCVVVDVSQEDPEVQFNWYVDGVEVHNAKTKPREEQFNSTYRVVSVLTVLHQDWLNGKEYKCKVSNKGLPSSIEKTISKAKGQPREPQVYTLPPSQEEMTKNQVSLTCLVKGFYPSDIAVEWESNGQPENNYKTTPPVLDSDGSFFLYSKLTVDKSRWQEGNVFSCSVMHEALHNHYTQKSLSLSLG
For the molecule B6, the binding result is given as “binds”.

B7: 2B1 scFv-Fc (Fc fusion)
chain: EVQLQQSGAELVKPGASVKMSCKASGYTFASYNLHWVKQTPGQGLEWIGLIYPENGDTSYNQKFKGKATLTADKSSSTAYIQLSSLTSEDSAVYFCARGGFDYWGQGTSLTVSSGGGGSGGGGSGGGGSDIQMIQSPASLSVSVGETVTITCRASENIYSNLAWYQQKQGKSPQLLVYNAKTLADGVPSRFSGSGSGTQYSLKINSLQPEDFGSYYCQHFWSTPYTFGGGTKLEIKESKYGPPCPPCPAPEAAGGPSVFLFPPKPKDTLMISRTPEVTCVVVDVSQEDPEVQFNWYVDGVEVHNAKTKPREEQFNSTYRVVSVLTVLHQDWLNGKEYKCKVSNKGLPSSIEKTISKAKGQPREPQVYTLPPSQEEMTKNQVSLTCLVKGFYPSDIAVEWESNGQPENNYKTTPPVLDSDGSFFLYSKLTVDKSRWQEGNVFSCSVMHEALHNHYTQKSLSLSLG
Consider B7, for which the binding result is reported as “binds”.

B8: 3D7 scFv-Fc (Fc fusion)
chain: QVQLQQSGAELVKPGASVKMSCKASGYTFSFYNMHWVKRTPGRGLEWIGLIYPDNGDTSYNQKFKGKATLTADTSSSTAYMQLSSLTSEDSAVYYCARGGLDYWGQGTSLTVSSGGGGSGGGGSGGGGSEIVLTQSPASLAVSLGQRATISCKASQSVDYDGDSYMNWYQQKPGQPPKLLIYGISNRFSGVPDRFSGSGSGTDFTLKISTIKPEDLGMYYCLQGTHQPYTFGGGTKLEIKESKYGPPCPPCPAPEAAGGPSVFLFPPKPKDTLMISRTPEVTCVVVDVSQEDPEVQFNWYVDGVEVHNAKTKPREEQFNSTYRVVSVLTVLHQDWLNGKEYKCKVSNKGLPSSIEKTISKAKGQPREPQVYTLPPSQEEMTKNQVSLTCLVKGFYPSDIAVEWESNGQPENNYKTTPPVLDSDGSFFLYSKLTVDKSRWQEGNVFSCSVMHEALHNHYTQKSLSLSLG
Consider B8, for which the binding result is reported as “binds”.

B9: 3E2 scFv-Fc (Fc fusion)
chain: EIQLQQSGAELVKPGASVKMSCKASGYTFSFYNMHWVKRTPGQGLEWIGLIYPDNGDTSYNQKFKGKATLTADTSSSTAYMQLSSLTSEDSAVYYCARGGLDYWGQGTSLTVSSGGGGSGGGGSGGGGSNIVMTQSQKFMSTSVGDRVSVTCKASQNVGTNVAWYQQKPGQSPKALIYSASYRYTGVPDRFTGSGSGTDFTFTISSVQAEDLAVYYCQQHYSTPYTFGGGTKLEIKESKYGPPCPPCPAPEAAGGPSVFLFPPKPKDTLMISRTPEVTCVVVDVSQEDPEVQFNWYVDGVEVHNAKTKPREEQFNSTYRVVSVLTVLHQDWLNGKEYKCKVSNKGLPSSIEKTISKAKGQPREPQVYTLPPSQEEMTKNQVSLTCLVKGFYPSDIAVEWESNGQPENNYKTTPPVLDSDGSFFLYSKLTVDKSRWQEGNVFSCSVMHEALHNHYTQKSLSLSLG
As to B9, the binding result is on record as “binds”.

B10: 3F5 scFv-Fc (Fc fusion)
chain: EIQLQQSGAELVKPGASVKMSCKASGYTFRYYNMHWVKRTPGQGLEWIGLIYPDNGDTSYNQKFKGKATLTADTSSSTAYMQLSSLTSEDSAVYYCARGGLDYWGQGTTLTVSSGGGGSGGGGSGGGGSDIVLTQSPASLSASVGETVTITCGASENIYGALNWYQRKQGKSPQLLIYGATNLADGMSSRFSGSGSGRQYSLKISSLHPDDVATYYCQNVLSTPYTFGGGTKLEIKESKYGPPCPPCPAPEAAGGPSVFLFPPKPKDTLMISRTPEVTCVVVDVSQEDPEVQFNWYVDGVEVHNAKTKPREEQFNSTYRVVSVLTVLHQDWLNGKEYKCKVSNKGLPSSIEKTISKAKGQPREPQVYTLPPSQEEMTKNQVSLTCLVKGFYPSDIAVEWESNGQPENNYKTTPPVLDSDGSFFLYSKLTVDKSRWQEGNVFSCSVMHEALHNHYTQKSLSLSLG
In the case of B10, the binding entry is listed as “binds”.

B11: 3C9 scFv-Fc (Fc fusion)
chain: B10 chain with T28I, V132Q, L133M, T134I
Take B11: the binding entry is “binds”.

B12: 3B4 scFv-Fc (Fc fusion)
chain: B10 chain with I2V, E10D, R30S, K38R, V132Q, L133M, T134I, L140M, I235M
As for B12, the binding entry is reported as “binds”.

B13: 3B7 scFv-Fc (Fc fusion)
chain: B10 chain with I2V, L101F, V132Q, L133M, I235L
Take B13: the binding result is given as “binds”.
